Source: article PMC4227788

Chains of the proteins cited; added tags and fusions are not shown. A line that says so, or that is headed by a name, gives the form on record, which may keep a tag or linker.
Tim-Tipin complex (mouse), one chain, as listed by the source, chain 2 of 2: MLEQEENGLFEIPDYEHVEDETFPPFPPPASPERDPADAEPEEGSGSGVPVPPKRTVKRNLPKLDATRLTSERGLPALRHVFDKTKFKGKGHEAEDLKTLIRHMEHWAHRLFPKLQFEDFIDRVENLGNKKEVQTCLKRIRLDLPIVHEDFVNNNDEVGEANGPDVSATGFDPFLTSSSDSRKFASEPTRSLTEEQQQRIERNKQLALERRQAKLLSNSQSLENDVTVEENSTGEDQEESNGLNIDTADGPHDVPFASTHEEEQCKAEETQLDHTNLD
Tim-Tipin complex (mouse), one chain, as listed by the source, chain 1 of 2: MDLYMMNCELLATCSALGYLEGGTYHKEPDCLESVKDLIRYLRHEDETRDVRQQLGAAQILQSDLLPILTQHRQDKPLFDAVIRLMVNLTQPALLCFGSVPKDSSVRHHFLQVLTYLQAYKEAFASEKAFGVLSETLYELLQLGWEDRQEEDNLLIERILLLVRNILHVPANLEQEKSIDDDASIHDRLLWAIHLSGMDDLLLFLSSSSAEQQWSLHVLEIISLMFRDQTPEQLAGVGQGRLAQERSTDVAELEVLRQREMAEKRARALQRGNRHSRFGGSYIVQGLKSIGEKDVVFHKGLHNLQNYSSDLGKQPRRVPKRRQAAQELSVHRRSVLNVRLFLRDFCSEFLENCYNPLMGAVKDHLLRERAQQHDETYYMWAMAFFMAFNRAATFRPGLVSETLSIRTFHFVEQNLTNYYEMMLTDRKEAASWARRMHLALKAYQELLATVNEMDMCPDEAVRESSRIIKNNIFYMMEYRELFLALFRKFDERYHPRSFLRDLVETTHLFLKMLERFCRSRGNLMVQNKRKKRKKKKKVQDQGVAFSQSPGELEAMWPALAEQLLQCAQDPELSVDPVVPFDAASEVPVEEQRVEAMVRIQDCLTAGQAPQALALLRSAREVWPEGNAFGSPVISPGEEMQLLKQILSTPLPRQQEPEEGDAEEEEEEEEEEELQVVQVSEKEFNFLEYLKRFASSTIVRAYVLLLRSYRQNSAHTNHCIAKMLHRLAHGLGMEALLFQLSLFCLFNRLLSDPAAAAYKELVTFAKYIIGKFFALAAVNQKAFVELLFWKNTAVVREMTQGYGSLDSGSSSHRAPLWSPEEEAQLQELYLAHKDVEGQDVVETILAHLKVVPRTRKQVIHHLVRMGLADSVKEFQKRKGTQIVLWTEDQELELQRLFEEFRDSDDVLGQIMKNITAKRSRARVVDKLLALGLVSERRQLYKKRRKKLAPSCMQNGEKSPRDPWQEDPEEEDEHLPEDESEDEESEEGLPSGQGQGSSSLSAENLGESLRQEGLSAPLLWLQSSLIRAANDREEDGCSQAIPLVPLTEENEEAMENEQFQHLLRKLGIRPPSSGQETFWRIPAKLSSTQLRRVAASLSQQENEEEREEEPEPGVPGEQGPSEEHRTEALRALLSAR

How the values were obtained:
[1] = system: Tim-Tipin complex + RPA70/32/14 (RPA70ABC/32D-WH/14); assay: SEC; details: 20 mM Hepes pH 7.5, 125 mM NaCl, 2 mM DTT, 0.01 mM zinc acetate (Buffer A), FA 15 min 30 C, 10 nM DNA, recombinant protein, protein details: His (Tim) and His-GST (Tipin), cleaved with 3C,His, single-stranded DNA
[2] = system: Tim-Tipin complex + RPA full length (RPA70FL/32FL/14); assay: SEC; details: full-length RPA, 260/280 = 1.05, similar to truncated RPA; 20 mM Hepes pH 7.5, 125 mM NaCl, 2 mM DTT, 0.01 mM zinc acetate (Buffer A); FA 15 min 30 C, 10 nM …; recombinant protein; protein details: His (Tim) and His-GST (Tipin), cleaved with 3C,His; single-stranded DNA
[3] = system: Tim-Tipin complex (mouse); assay: SEC; details: excess DNA, partial binding, 260/280 = 0.74 ± 0.01; 20 mM Hepes pH 7.5, 125 mM NaCl, 2 mM DTT, 0.01 mM zinc acetate (Buffer A); FA 15 min 30 C, 10 nM DNA; recombinant protein; protein details: His (Tim) and His-GST (Tipin), cleaved with 3C; single-stranded DNA
[4] = system: Tim-Tipin complex (mouse); assay: EMSA; details: 16 uM protein, 4-64 uM DNA, less pronounced than 60 nt; 20 mM Hepes pH 7.5, 125 mM NaCl, 2 mM DTT, 0.01 mM zinc acetate (Buffer A); EMSA 15 min RT + 15 min 4 C; FA 15 min 30 C, 10 nM DNA; recombinant protein; protein details: His (Tim) and His-GST (Tipin), cleaved with 3C; label: 5'-FAM; single-stranded DNA
[5] = system: Tim-Tipin complex + RPA70/32/14 (RPA70ABC/32D-WH/14); assay: EMSA; details: 20 mM Hepes pH 7.5, 125 mM NaCl, 2 mM DTT, 0.01 mM zinc acetate (Buffer A), EMSA 15 min RT + 15 min 4 C, FA 15 min 30 C, 10 nM DNA, recombinant protein, protein details: His (Tim) and His-GST (Tipin), cleaved with 3C,His, label: 5'-FAM, single-stranded DNA
[6] = substoichiometric DNA, complex dissociates to free Tim-Tipin and RPA-DNA

“CGGGATCCCAGCCAGCGATGTCTCAAGCTGC [31 nt ssDNA (SEC)]”: no binding [1, 6]; binds [2]; binds more weakly [3].
“ACGCTGCCGAATTCTACCAGTGCCTTGCTA [30 nt FAM ssDNA]”: binds more weakly [4].
“CAGACCGCCACCGACTGCTTAGATATTTAAGTTTTCTAATTTTTCATTGAAAGCATTAAG [60 nt ssDNA (SEC)]”: no binding [1, 6].
GACGGCATCCCTAA [14 nt FAM ssDNA]: no binding ([5]; complex dissociates to free Tim-Tipin and RPA-DNA).
“ACGCTGCCGAATTCTACCAGTGCCTTGCTAGGACATCTTTGCCCACCTGCAGGTTCACCC [60 nt FAM ssDNA]”: no binding ([5]; substoichiometric DNA, complex dissociates, up to 4 RPA on DNA).
AGAAGAGCCAAAAC [14 nt ssDNA (SEC)]: no binding ([1]; complex dissociates to free Tim-Tipin and RPA-DNA at all ratios).

For some assays here: A negative result means that nothing was seen under these conditions. For some assays here: Weaker means in comparison with the reference protein, sequence or condition of that experiment. For some assays here: For at least one entry, the source does not settle the construct or the ends of the probe. For some assays here: At least one verdict was read from the data and is not stated in words by the source.
